The supplement of paper PMC7125110
± gives the standard error. Many entries were measured with a wide error.

B1: glmS ribozyme (parent)
chain: AUAAAAGCGCCAGAACUACAGAAAUGUAGUUGACGAGGAGGAGGUUUAUCGAAUUUUCGGCGGAUGCCUCCAAA

Variants of: B1
Assay: KM; higher = weaker cofactor use; RNA array
Conditions: with glucosamine-6-phosphate
Method in brief: (§1)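 kcat and KM were obtained from weighted Michaelis–Menten fits across concentrations of kobs values. Those came from one- or two-exponential decay fits to per-tile medians normalised to baseline and to non-cleaving reference variants. The variants were barcoded ribozymes transcribed in situ by E. coli RNA polymerase on sequenced MiSeq chips and tracked through a hybridised Cy3 probe at 37 °C, with 40 μM to 10 mM glucosamine-6-phosphate in HEPES/KCl/Mg(OAc)2 buffer flowed in.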

Variant	KM [µM]
A53U G59A	1320 ± 870
U54A C70G	68.2 ± 58
U54A U56G	1740 ± 650
U55G U69A	124 ± 100
U56C G60A	1070 ± 61
U56G C67A	674 ± 450
U57A C68U	2500 ± 560
C58A C71U	3890 ± 1200
A64G G66A	936 ± 460
G66A C67G	2030 ± 1300
G66A U69A	438 ± 250
C67A C71U	638 ± 350

Variants of: B1
Assay: self-cleavage kobs at 160 uM GlcN6P; higher = faster cleavage; RNA array
Conditions: with glucosamine-6-phosphate
Method in brief: as §1

Variant	self-cleavage kobs at 160 uM GlcN6P [s⁻¹]
U57A C68U	1.53e-05 ± 1.3e-05
A14C G40U	2.07e-05 ± 1.4e-05
A15C G29A	3.49e-05 ± 2e-05
U31A U45C	4.82e-05 ± 2.6e-05
U47A U54A U65C	3.51e-05 ± 2.7e-05

Variants of: B1
Assay: self-cleavage kobs at 40 uM GlcN6P; higher = faster cleavage; RNA array
Conditions: with glucosamine-6-phosphate
Method in brief: as §1

Variant	self-cleavage kobs at 40 uM GlcN6P [s⁻¹]
U2A C50G	3.27e-05 ± 2.3e-05
G7U A15U C50G A53U U55G G62U	0.000122 ± 6.2e-05
C8A G29A C50G G66A C70G	2.7e-05 ± 2.3e-05
C8A G32A A33U U54G C70G	3.76e-05 ± 2e-05
C10A C67A C68A	2.91e-05 ± 2.3e-05
C11G G38A U57A C70G	2.82e-05 ± 2.1e-05
C11U A14G C70G	5.52e-05 ± 3.1e-05
C11U A15G C58G C68U	2.56e-05 ± 1.8e-05
C11U A52C C68U C71G	3.79e-05 ± 2.5e-05
A12C C16A	1.12e-05 ± 1e-05
A12U G32A	2.6e-05 ± 1.9e-05
G13C A53G	0.00349 ± 0.0035
A14C C58U C70G	2.65e-05 ± 2.1e-05
A14C G40U	3.03e-05 ± 1.9e-05
A14G U49A U54G G62U C68A	3e-05 ± 2.7e-05
A14U C34U C68G	3.71e-05 ± 2.2e-05
A15C G29A	1.56e-05 ± 1e-05
A15U C16A	1.65e-05 ± 1.2e-05
A15U C70G	1.58e-05 ± 1.5e-05
C16A U47A	2.21e-05 ± 1.4e-05
C16U C58G C68G	4.01e-05 ± 2.3e-05
C16U U31G C70A	3.74e-05 ± 2.9e-05
G29C C67A C71U	3.55e-05 ± 2.1e-05
G29U U54A C58G C67G	2.21e-05 ± 1.9e-05
U30A A52G	2.23e-05 ± 1.6e-05
U30C G35C C50A C68A	3.72e-05 ± 3e-05

Look-ups from the results shown.
self-cleavage kobs at 40 uM GlcN6P [s⁻¹], C16U U31G C70A is entered as 3.74e-05 ± 2.9e-05
self-cleavage kobs at 40 uM GlcN6P [s⁻¹], C11U A52C C68U C71G is entered as 3.79e-05 ± 2.5e-05
self-cleavage kobs at 40 uM GlcN6P [s⁻¹], G29U U54A C58G C67G is entered as 2.21e-05 ± 1.9e-05
self-cleavage kobs at 40 uM GlcN6P [s⁻¹], C11U A15G C58G C68U is entered as 2.56e-05 ± 1.8e-05

Next part

Variant	self-cleavage kobs at 40 uM GlcN6P [s⁻¹]
U31A U45C	3.15e-05 ± 1.7e-05
U31C C50G U56C C58U	4.09e-05 ± 2.3e-05
U31G A33G U46G A52G U57C C67G	2.32e-05 ± 2.2e-05
U31G C67G	2.06e-05 ± 1.5e-05
G32U G62U U69A	3.18e-05 ± 2.9e-05
A33G C50G	0.000532 ± 0.00027
A33G G35A U54G U69A	5.74e-05 ± 2.9e-05
C34U G38A C70G	4.25e-05 ± 3.2e-05
C34U U49C C50G C61U C68G C71G	0.000628 ± 0.00033
A36U C61G C70G	3.09e-05 ± 1.8e-05
A36U G37C C50U U57A U69G	5e-05 ± 2.6e-05
A39U A53U C70G	2.64e-05 ± 1.4e-05
A42G A52G	1.97e-05 ± 2e-05
U46C C70G C71A	4.04e-05 ± 2.5e-05
U47A C70A	1.68e-05 ± 1.5e-05
U47A U54A U65C	2.09e-05 ± 2e-05
C50G A52U C71A	3.49e-05 ± 2.8e-05
C50G A64C	0.000487 ± 0.00046
C50G G60C U69A	3.88e-05 ± 2.4e-05
G51A U55G C70U	3.85e-05 ± 2.2e-05
A52G U55G U56G C67A U69G	2.58e-05 ± 2.4e-05
A53C C67A	2.74e-05 ± 1.4e-05
U54A G66C	1.78e-05 ± 1.1e-05
U54G C67U C68U	2.45e-05 ± 1.9e-05
U57G C58G C67G	3.46e-05 ± 2.7e-05
C67G C68G	1.71e-05 ± 8.6e-06

Variants of: B1
Assay: self-cleavage kobs at 10000 uM GlcN6P; higher = faster cleavage; RNA array
Conditions: with glucosamine-6-phosphate
Method in brief: as §1

Variant	self-cleavage kobs at 10000 uM GlcN6P [s⁻¹]
U2A C50G	2.62e-05 ± 1.8e-05
U31G A33G U46G A52G U57C C67G	3.64e-05 ± 2e-05
G32U G62U U69A	2.79e-05 ± 1.6e-05
A33G C50G	0.000873 ± 0.00052
A33G G35A U54G U69A	3.19e-05 ± 1.9e-05
A36U C61G C70G	2.02e-05 ± 2e-05
U46C C70G C71A	4.43e-05 ± 2.3e-05
U47A C70A	0.00213 ± 0.0014
C50G A52U C71A	2.46e-05 ± 2.4e-05
A52G U55G U56G C67A U69G	2.4e-05 ± 2.2e-05
C67G C68G	0.000523 ± 0.00036
A6C U69C	2.23e-05 ± 1.3e-05

Variants of: B1
Assay: self-cleavage kobs at 2500 uM GlcN6P; higher = faster cleavage; RNA array
Conditions: with glucosamine-6-phosphate
Method in brief: as §1

Variant	self-cleavage kobs at 2500 uM GlcN6P [s⁻¹]
U31C C50G U56C C58U	4.8e-05 ± 3.3e-05
C8A C34U U69A	4.11e-05 ± 3.2e-05

Variants of: B1
Assay: self-cleavage kobs at 640 uM GlcN6P; higher = faster cleavage; RNA array
Conditions: with glucosamine-6-phosphate
Method in brief: as §1

Variant	self-cleavage kobs at 640 uM GlcN6P [s⁻¹]
C50G A64C	2.41e-05 ± 2.4e-05
G51A U55G C70U	2.65e-05 ± 2.1e-05
A6C C10U C67G U69A	3.16e-05 ± 2.2e-05
A6C U30C U56G C70A	4.47e-05 ± 4.3e-05
A6C U55G	1.1e-05 ± 9.6e-06
A6C U69C	3.13e-05 ± 1.7e-05
A6U A53C	2.2e-05 ± 1.9e-05
A6U C16U C68U	4.4e-05 ± 3e-05
A6U C50G	3.33e-05 ± 2e-05
G7A G66U	0.00363 ± 0.0035
G7C C11A C50U U54C C58A C70A	0.00187 ± 0.0017
C8A C34U U69A	0.000113 ± 6.1e-05
